Measurements reported in PubChem BioAssay AID602196 (INSERM, 2012).

- Aim: 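Knock-downs that protect lung cancer cells from cisplatin or sensitise them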
- Cell system: human A549 lung cancer cells
- Reagent: siRNA pair against human genes
- Timing: 48 h transfection before cisplatin; time from cisplatin to read-out not stated
- Conditions: cisplatin at a dose killing half of control-siRNA cells; exact dose and duration not given
- Detection: 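Cisplatin cell death as a shift from the 50% death seen with control siRNA; siRNAs toxic or growth-blocking alone scored 0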
- Scale: two-siRNA summed score (-2 to +2): higher = both siRNAs protect from cisplatin killing; -2 means both sensitise; mean protection from cisplatin (shift in death): higher = protection from cisplatin killing
- Call rule: 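Each siRNA scores 0 if harmful alone by LDH or WST-1, otherwise +1 if it reduces and -1 if it increases cisplatin killing; a gene is active when both siRNAs agree (sum +2 or -2)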
- Meaning of the calls: active = both siRNAs shift cisplatin killing the same way; inactive = no consistent shift, or siRNA harmful alone
This is one part, drawn at random, of about 23,000 deposited reagents. 455 of all reagents (2%) count as active. 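Active includes both protection and sensitisation; some change values fall well beyond the stated -50 to +50 range.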 Unmarked entries are inactive. Further read-outs or replicates are left out here. No sequences are given here. Not stated in the record: the amount of reagent.

target gene	two-siRNA summed score (-2 to +2)	mean protection from cisplatin (shift in death) (%)
TSPAN31	0	2.4
TMEM14C	0	11.9
C5	0	-5.5
ECH1	2 (active)	22.6
STK32A	0	5.8
CXCL17	1	2.9
STAG3L1	0	7.3
DOCK1	0	1.6
BPGM	0	-0.2
EXOSC9	0	9.6
LINC01549	-1	-6.2
PEX7	-1	-23.5
PNRC1	0	-1
FENDRR	0	3.4
TRNAU1AP	0	7.9
RNF113A	-1	-11.8
PDK1	0	4.4
CYP7B1	0	-5.7
HS6ST3	0	4.3
SRRM1	1	9.4
RGPD5	-1	-10.7

Quoted from the entries so far, 3 entries:
target gene	two-siRNA summed score (-2 to +2)	mean protection from cisplatin (shift in death) (%)
CYP7B1	0	-5.7
HS6ST3	0	4.3
SRRM1	1	9.4

Continued:
target gene	two-siRNA summed score (-2 to +2)	mean protection from cisplatin (shift in death) (%)
CFAP70	0	-0.7
LOC253289	0	4.3
LOC441442	0	17.9
APOC4	1	23.8
MFN1P1	0	6
LOC388893	-1	-15.1
PAX3	-1	-20.8
C1orf210	0	-6.4
LOC392223	-1	5.2
RASGRP1	1	10
SHF	0	2
LOC442401	0	-2.5
PDE3B	1	7.1
DCLRE1B	0	-1
NUP153	-1	-18.3
GNGT2	0	3.5
TICRR	0	5.4
CD5	0	4.9
